Patent US8828941 (KUNOVUS, dated 2014)
Results are given in words; binding and its absence hold for the method and conditions named. Some entries that bind do so weakly or less than the wild type. Tags and fused reporters may be left off the sequences shown.

Biological target: full-length GDF-6 fused to a FLAG tag, expressed in CHO cells (human) (UniProt Q6KF10)
Assay: non-reducing PAGE of protein from CHO cells

binding: binds
B1: full-length GDF-6 fused to a FLAG tag, expressed in CHO cells (ligand, human, UniProt Q6KF10 336-455, looked up, not shown: small tags and cut ends)
chain: TAFASRHGKRHGKKSRLRCSKKPLHVNFKELGWDDWIIAPLEYEAYHCEGVCDFPLRSHLEPTNHAIIQTLMNSMDPGSTPPSCCVPTKLTPISILYIDAGNNVVYKQYEDMVVESCGCR
